PubChem BioAssay AID1053208 – Peter MacCallum Cancer Centre – 2014

Purpose: 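Find knock-downs that sensitise mouse osteosarcoma cells to doxorubicin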 (primary screen)
Cell system: mouse osteosarcoma cells, early-passage culture from an engineered mouse model of fibroblastic bone tumour
Knock-down reagent: siRNA pool against mouse genes, 40 nM
Duration: about 120 h (48 h before drug, then 72 h with drug)
Conditions: doxorubicin 100 nM for 72 h, roughly 30-40% inhibitory dose
Read-out: 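Viability read as ATP luminescence after 72 h of 100 nM doxorubicin or none, duplicate wells averaged, scaled to non-targeting siRNA, then expressed as robust z-scores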
Reading the numbers: viability z-score with doxorubicin: higher = more viable cells under doxorubicin; viability z-score without drug: higher = more viable cells with knock-down alone
Rule for the call: 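a pool counts as active when its viability z-score with doxorubicin is -2 or below and its z-score without drug lies between -2 and 2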
This is a random part of about 17,000 reagents. 788 of all reagents (4.7%) were called active. 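Calls rest on z-score classes alone; an extra cut-off of viability at most 70% of control was not applied to them.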 Not all columns of the deposit are shown.

Gene	combined z-score class	viability z-score with doxorubicin	viability z-score without drug	outcome
Hps3	no change with or without drug	0.22	0.34	inactive
Rtca	high cell count with and without drug	2.02	2.87	inactive
Nt5c1b	high cell count with doxorubicin only	2.81	1.18	inactive
Aen	no change with or without drug	-0.9	-0.84	inactive
Sf3b3	low cell count with and without drug	-3.82	-2.87	inactive
Kics2	no change with or without drug	-0.9	-1.52	inactive
Lcn4	no change with or without drug	1.12	0.84	inactive
Rpap2	no change with or without drug	0.56	-0.17	inactive
Slc22a4	no change with or without drug	-0.67	0.17	inactive
Abca12	no change with or without drug	-0.67	-0.67	inactive
Vmn1r89	no change with or without drug	-0.67	0.51	inactive
Sim1	no change with or without drug	-0.11	0.17	inactive
Slc2a6	no change with or without drug	-0.22	-0.51	inactive
Pold1	no change with or without drug	-1.57	0	inactive
Zfp738	no change with or without drug	0	-0.51	inactive
Tgfb3	no change with or without drug	-0.45	-0.34	inactive
Rap2c	high cell count without drug only	0	2.19	inactive
Diaph1	high cell count with doxorubicin only	2.02	-0.51	inactive
Rdh19	low cell count with and without drug	-8.32	-8.26	inactive
Tank	no change with or without drug	-0.67	-0.84	inactive

Reformatted: 3 of the entries above
Abca12 → combined z-score class = no change with or without drug; viability z-score with doxorubicin = -0.67; viability z-score without drug = -0.67; outcome = inactive
Vmn1r89 → combined z-score class = no change with or without drug; viability z-score with doxorubicin = -0.67; viability z-score without drug = 0.51; outcome = inactive
Sim1 → combined z-score class = no change with or without drug; viability z-score with doxorubicin = -0.11; viability z-score without drug = 0.17; outcome = inactive
